Experimental data as given in PubChem BioAssay AID602313 (National Center for Advancing Translational Sciences (NCATS), 2012).
Out of some 390,000 compounds screened, about 760 (0.19%) were called active. Inconclusive means that the source gave no clear call. Such entries were picked first, then a sample of the others. The call rests on the fitted dose curve; in most records, active means well fitted inhibition curve with a large enough effect; inconclusive means small, poorly fitted or top-dose-only effect; inactive means flat fitted curve, though single readings scatter. Where the call is inconclusive, the potency comes from a doubtful curve fit.

Assay: qHTS for Inhibitors of Vif-A3F Interactions: qHTS; further: nearly all actives have a fitted effect of over 65% in size; on activity, negative = active: % of control where 0% means no effect
Conditions: HeLa A3F-eYFP + Vif (tagged APOBEC3F with the HIV-1 protein that degrades it), YFP fluorescence increase; series mostly up to 46.1 µM; activity, negative = active: at the top concentration
Outline: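 HeLa cells stably expressing Vif plus C-terminally eYFP-tagged A3F were seeded, incubated overnight at 37 deg C, dosed with compound, incubated overnight again at 37 deg C. Yellow fluorescence (Ex 488/Em 500-530) reported blocked Vif-mediated A3F-eYFP degradation.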
Potency means the concentration at half of the fitted maximal effect.

| Structure (SMILES) | Potency | activity, negative = active |
| --- | --- | --- |
| Cc1ccc(S(=O)(=O)NNC(=O)c2c(O)c3ccccc3[nH]c2=O)cc1 | inconclusive: 35.5 µM [inhibitor, single point] | – |
| O=C(Cc1ccc([N+](=O)[O-])cc1)N/N=C/c1ccc([N+](=O)[O-])o1 | – | inactive: -6.11% |
| CC(C)COP(=O)(OCC(C)C)C(O)c1ccc(N(C)C)cc1 (stereo not given) | inconclusive: 35.5 µM [inhibitor, single point] | – |
| OCCNc1c2ccccc2nc2ccccc12 | inconclusive: 35.5 µM [inhibitor, single point] | – |
| COc1ccc(C2CC(c3c(O)cc(C)oc3=O)=NCCS2)c(OC)c1 (stereo not given) | inconclusive: 2.82 µM [inhibitor, single point] | – |
| CCOC(=O)c1ccc(NS(=O)(=O)c2ccc3[nH]c4c(c3c2)CCCCC4)cc1 | inconclusive: 35.5 µM [inhibitor, single point] | – |
| O=C(Nc1ccc([N+](=O)[O-])cc1)c1cc(-c2ccccn2)nc2c(Cl)cccc12 | inconclusive: 12.6 µM [inhibitor, partial curve, poor fit] | – |
| COC(=O)c1cccc(NS(=O)(=O)c2cccs2)c1C | – | inactive: 5.11% |
| Cc1ccc(Cl)cc1Nc1nc(N2CCOCC2)nc(N2CCOCC2)n1 | – | inactive: 3.92% |
| COc1cc(/C=N/NC(=O)c2sc3nc(C)cc(C)c3c2N)ccc1O | inconclusive: 35.5 µM [inhibitor, single point] | – |
| CCOc1cc(/C=C2\SC(=S)N(NS(=O)(=O)c3ccc(C)cc3)C2=O)ccc1O | inconclusive: 12.6 µM [inhibitor, partial curve, poor fit] | – |
| CCOc1ccc(NC(=O)/C(C#N)=C/c2ccc(N3CCCC3)c(C)c2)cc1 | active: 2.51 µM | – |
| COc1cc(C(=O)N[C@H](C(=O)NC2CCCc3ccccc32)C(C)C)cc(OC)c1OC (stereo not given in full) | inconclusive: 3.16 µM [inhibitor, single point] | – |
| O=C(Nc1cccc(F)c1)/C(=C\c1ccco1)NC(=O)c1ccco1 | inconclusive: 35.5 µM [inhibitor, single point] | – |
| Cc1cccc2c(N=Nc3ccccc3)c(O)[nH]c12 | inconclusive: 15.8 µM [inhibitor, partial curve, poor fit] | – |
| O=C(O)c1ccc2ncsc2c1 | – | inactive: -5.24% |
| O=C1C2C3c4ccccc4C(Br)(c4ccccc43)C2C(=O)N1c1ccccc1O (stereo not given) | – | inactive: 2.66% |
| CCCOc1ccc(NC(=O)C2CC(=O)N/C(=N/N=C(C)/C=C/c3ccc(N(C)C)cc3)S2)cc1 (stereo not given) | inconclusive: 22.4 µM [inhibitor, single point] | – |
| N#Cc1ccc(-c2cccnc2)nc1SCC(=O)c1ccccc1 | inconclusive: 6.31 µM [inhibitor, full curve, poor fit] | – |
| Cc1cccc(C)c1NC(=O)c1ccc(-c2ccc(Cl)cc2Cl)o1 | – | inactive: -15.3% |
| COc1ccc2nc3cc(Cl)ccc3c(C#N)c2c1 | inconclusive: 35.5 µM [inhibitor, single point] | – |
| Nc1nc2ccccc2n1Cc1ccc(Cl)c(Cl)c1 | – | inactive: 3.5% |
| CC(C)CC(=O)NC(=S)Nc1ccccc1N1CCCC1 | inconclusive: 35.5 µM [inhibitor, single point] | – |

| Structure (SMILES) | Potency | activity, negative = active |
| --- | --- | --- |
| Cc1ccc(Cn2ncc(Cl)c(Cl)c2=O)cc1 | – | inactive: 0.615% |
| COc1ccc(-c2csc(NC(=O)CSCC(=O)Nc3cc(C)on3)n2)cc1OC | inconclusive: 2.51 µM [inhibitor, partial curve, poor fit] | – |
| COC(=O)c1sc2ncccc2c1OCc1ccc(Cl)cc1 | inconclusive: 6.31 µM [inhibitor, single point] | – |
| O=C(CCNC(=O)c1ccccc1Cl)NN=Cc1ccccc1[N+](=O)[O-] | – | inactive: 3.35% |
| Nc1c(C(=O)c2ccccc2)sc2snc(SCC(=O)c3ccccc3)c12 | inconclusive: 8.91 µM [inhibitor, partial curve, poor fit] | – |
| CC1CCCC(NCC(O)COC(c2ccc(F)cc2)c2ccc(F)cc2)C1C (stereo not given) | inconclusive: 3.98 µM [inhibitor, single point] | – |
| N#CC1=C(N)Oc2cc(O)c(Cl)cc2C1c1cccnc1 (stereo not given) | inconclusive: 25.1 µM [inhibitor, single point] | – |
| Cc1ccccc1CNC(=O)C(=O)NCC(c1cccs1)S(=O)(=O)c1ccc(Cl)cc1 (stereo not given) | – | inactive: -8.68% |
| CCN(CC)CC(=O)Nc1sc(C)cc1C(=O)c1ccccc1 | – | inactive: -2.35% |
| Cn1c2ccccc2c2nnc(SC3CCOC3=O)nc21 (stereo not given) | – | inactive: 4.54% |
| Cc1cc(O)c(/C=N/OCc2ccc(Cl)cc2Cl)c(=O)o1 | inconclusive: 35.5 µM [inhibitor, single point] | – |
| CCCCOC(=O)/C(=C\c1ccc([N+](=O)[O-])o1)NC(=O)c1ccccc1 | inconclusive: 11.2 µM [inhibitor, partial curve, poor fit] | – |
| CCCCCCc1cc2cc(C(=O)OCC)c(=O)oc2cc1O | – | inactive: 8.35% |
| NC(=O)CSc1nnc2ccc(-c3ccc(F)cc3)nn12 | – | inactive: 2.82% |
| COc1ccc(C#Cc2ccc(C3=CC(=O)CC(C)(C)C3=O)cc2)cc1 | inconclusive: 22.4 µM [inhibitor, single point] | – |
| CCCCCCCn1c(NC(=O)CC)nc2ccccc21 | inconclusive: 35.5 µM [inhibitor, partial curve, poor fit] | – |
| CNC(=S)NNC(=O)c1oc2nc(-c3ccccc3)cc(-c3ccco3)c2c1N | inconclusive: 35.5 µM [inhibitor, single point] | – |
| COc1cc2c3nnc(-c4ccc(F)cc4)c-3cn(Cc3cccc(C)c3)c2cc1OC | inconclusive: 4.47 µM [inhibitor, single point] | – |
| O=C(O)c1cccc(Nc2nc(C(F)(F)F)nc3ccccc23)c1 | inconclusive: 2.82 µM [inhibitor, partial curve, poor fit] | – |
| COc1ccc(Nc2nc3c(C)cccc3cc2C#N)c(OC)c1 | inconclusive: 20 µM [inhibitor, single point] | – |
| C/C(=N\Nc1ccc([N+](=O)[O-])cc1)c1cc2ccccc2o1 | inconclusive: 11.2 µM [inhibitor, partial curve, poor fit] | – |
| CCN1C(=O)[C@H]2[C@H]3CN=C(SCC(=O)c4ccccc4)N3[C@@](CC)(C(=O)OC)[C@H]2C1=O | inconclusive: 35.5 µM [inhibitor, single point] | – |
